# From PubChem BioAssay AID220 (DTP/NCI, 2004)
# The list does not hold the whole screen: it is rich in T/C values a quarter to a half above the control, in often repeated tests (any T/C) and in doses without a T/C. Other doses and runs of a compound stand elsewhere. T/C: endpoint of the treated group in % of that of the vehicle group. Schedule codes are those of the source, taken here to give the interval after Q, in days (D) or hours (H), and the number of doses after X. Some doses were run more than once; the results are listed from low to high. Some T/C values carry the count of animals alive at the toxicity check (mostly the fifth day); where none is given, no animal had died by that day. Some T/C values are negative: the treated tumours shrank. Some doses have a count of surviving animals in place of a T/C: the source holds a T/C of zero for them, seemingly a mark for toxic or unscored doses. Counts of survivors are from the toxicity check (mostly the fifth day) where no day follows; animals may have died later.
# System: CD8F1 mice, subcutaneous mammary adenocarcinoma, T/C%
# Experiment: NCI In Vivo Anticancer Drug Screen. Data for tumor model Mammary Adenocarcinoma CD8F1 (subcutaneous) in CD8F1
# Conditions: higher T/C = larger tumour
# In short: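 Antitumor activity is assessed in transplantable-tumor mice by comparing the treated group with a vehicle-treated control group. Survival or tumor size serves as the measure, reported as T divided by C.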
# [1] = T/C endpoint: median tumor weight change, dose: 1000.0 mg/kg/injection, schedule: Q01DX001 (ip), vehicle: saline with Tween-80
# [2] = T/C endpoint: median tumor weight change, dose: 2000.0 mg/kg/injection, schedule: Q01DX001 (ip), vehicle: saline with Tween-80
# [3] = T/C endpoint: median tumor weight (est.), dose: 25.0 mg/kg/injection, schedule: Q07DX005 (ip), vehicle: saline with Tween-80, evaluated on day 30
# [4] = T/C endpoint: median tumor weight (est.), dose: 200.0 mg/kg/injection, schedule: Q07DX005 (ip), vehicle: Klucel (hydroxypropylcellulose) (HPC), evaluated on day 30
smiles,measurement,setting,value
O=C(O[Si](Cc1ccccc1)(Cc1ccccc1)Cc1ccccc1)N(CCCl)CCCl,T/C,"T/C endpoint: median tumor weight change, dose: 125.0 mg/kg/injection, schedule: Q01DX001 (ip), vehicle: saline with Tween-80, evaluated on day 28",154 % of control
same,T/C,"T/C endpoint: median tumor weight change, dose: 125.0 mg/kg/injection, schedule: Q01DX001 (ip), vehicle: saline with Tween-80, evaluated on day 32",66 % of control
same,T/C,"T/C endpoint: median tumor weight change, dose: 125.0 mg/kg/injection, schedule: Q01DX001 (ip), vehicle: saline with Tween-80, evaluated on day 33",121 % of control
same,T/C,"T/C endpoint: median tumor weight change, dose: 125.0 mg/kg/injection, schedule: Q01DX001 (ip), vehicle: saline with Tween-80, evaluated on day 35",132 % of control
same,T/C,"T/C endpoint: median tumor weight change, dose: 250.0 mg/kg/injection, schedule: Q01DX001 (ip), vehicle: saline with Tween-80, evaluated on day 28",116 % of control
same,T/C,"T/C endpoint: median tumor weight change, dose: 250.0 mg/kg/injection, schedule: Q01DX001 (ip), vehicle: saline with Tween-80, evaluated on day 32",77 % of control
same,T/C,"T/C endpoint: median tumor weight change, dose: 250.0 mg/kg/injection, schedule: Q01DX001 (ip), vehicle: saline with Tween-80, evaluated on day 33",78 % of control
same,T/C,"T/C endpoint: median tumor weight change, dose: 250.0 mg/kg/injection, schedule: Q01DX001 (ip), vehicle: saline with Tween-80, evaluated on day 35",65 % of control
same,T/C,"T/C endpoint: median tumor weight change, dose: 500.0 mg/kg/injection, schedule: Q01DX001 (ip), vehicle: saline with Tween-80, evaluated on day 28",15 % of control
same,survivor count,"T/C endpoint: median tumor weight change, dose: 500.0 mg/kg/injection, schedule: Q01DX001 (ip), vehicle: saline with Tween-80","1 of 10 on day 32, 2 of 10 on day 35, 5 of 10 on day 33"
same,survivor count,[1],"0 of 10 on day 28, 0 of 10 on day 32, 0 of 10 on day 33, 0 of 10 on day 35"
COc1ccc2c(c1[N+](=O)[O-])CC[C@@H]1[C@@H]2CC[C@]2(C)C(=O)CC[C@@H]12,T/C,"T/C endpoint: median tumor weight change, dose: 125.0 mg/kg/injection, schedule: Q01DX001 (ip), vehicle: saline with Tween-80, evaluated on day 30",147 % of control
same,T/C,"T/C endpoint: median tumor weight change, dose: 1000.0 mg/kg/injection, schedule: Q01DX001 (ip), vehicle: saline with Tween-80, evaluated on day 30",126 % of control [8 of 10 alive on day 30]
CCCCn1cnc2c(=S)nc[nH]c21,survivor count,[2],6 of 10 on day 33
O=C(/C=C(\Cl)C(=O)NO)NO,survivor count,"T/C endpoint: median tumor weight change, dose: 500.0 mg/kg/injection, schedule: Q01DX001 (ip), vehicle: suspension in saline",3 of 10 on day 30
same,survivor count,"T/C endpoint: median tumor weight change, dose: 1000.0 mg/kg/injection, schedule: Q01DX001 (ip), vehicle: suspension in saline",0 of 10 on day 30
O=C(O)CC(NC(=O)CP(=O)(O)O)C(=O)O (stereo not drawn),survivor count,"T/C endpoint: median tumor weight change, dose: 50.0 mg/kg/injection, schedule: Q01DX001 (ip), vehicle: saline",6 of 10 on day 24
O=C(NO)c1ccccc1,T/C,"T/C endpoint: median tumor weight (est.), dose: 200.0 mg/kg/injection, schedule: Q07DX005 (ip), vehicle: suspension in saline, evaluated on day 30",147 % of control [9 of 10 alive on day 30]
same,survivor count,"T/C endpoint: median tumor weight (est.), dose: 400.0 mg/kg/injection, schedule: Q07DX005 (ip), vehicle: suspension in saline",4 of 10 on day 30
same,survivor count,"T/C endpoint: median tumor weight (est.), dose: 800.0 mg/kg/injection, schedule: Q07DX005 (ip), vehicle: suspension in saline",4 of 10 on day 30
CCCCC(C)(C(=O)OCC)C(=O)OCC,T/C,"T/C endpoint: median tumor weight (est.), dose: 25.0 mg/kg/injection, schedule: Q07DX005 (ip), vehicle: Klucel (hydroxypropylcellulose) (HPC), evaluated on day 30",138 % of control
same,T/C,"T/C endpoint: median tumor weight (est.), dose: 50.0 mg/kg/injection, schedule: Q07DX005 (ip), vehicle: Klucel (hydroxypropylcellulose) (HPC), evaluated on day 30",137 % of control
same,T/C,"T/C endpoint: median tumor weight (est.), dose: 100.0 mg/kg/injection, schedule: Q07DX005 (ip), vehicle: Klucel (hydroxypropylcellulose) (HPC), evaluated on day 30",135 % of control [9 of 10 alive]
Nc1ccc2ccc(NS(=O)(=O)N3CCCCC3)cc2c1,survivor count,[2],1 of 10 on day 27
CCCCCCC1C=Cc2ccccc21 (stereo not drawn),survivor count,"T/C endpoint: median tumor weight (est.), dose: 200.0 mg/kg/injection, schedule: Q07DX005 (ip), vehicle: Klucel (hydroxypropylcellulose) (HPC)",0 of 10 on day 30
CC(/C=N/N=C(N)N)=N\N=C(N)N,T/C,"T/C endpoint: median tumor weight (est.), dose: 50.0 mg/kg/injection, schedule: Q07DX005 (ip), vehicle: saline, evaluated on day 30",133 % of control
CN(CO)c1nc(N(C)CO)nc(N(C)CO)n1,T/C,"T/C endpoint: median tumor weight (est.), dose: 6.25 mg/kg/injection, schedule: Q07DX006 (ip), vehicle: saline, evaluated on day 37",145 % of control
same,T/C,[3],127 % of control
CN(C)N=Nc1ccc(S(N)(=O)=O)cc1,T/C,[4],138 % of control
C[CH2][Sn]([CH2]C)([O]S(C)(=O)=O)[O]S(C)(=O)=O,survivor count,"T/C endpoint: median tumor weight change, dose: 31.25 mg/kg/injection, schedule: Q01DX001 (ip), vehicle: saline",3 of 10 on day 37
same,survivor count,"T/C endpoint: median tumor weight change, dose: 62.5 mg/kg/injection, schedule: Q01DX001 (ip), vehicle: saline",0 of 10 on day 37
CNC(=O)OCc1c(COC(=O)NC)c(-c2ccccc2)n(C)c1-c1ccccc1,T/C,"T/C endpoint: median tumor weight change, dose: 62.5 mg/kg/injection, schedule: Q01DX001 (ip), vehicle: distilled water + Tween-80, evaluated on day 24",5 % of control
same,T/C,"T/C endpoint: median tumor weight change, dose: 62.5 mg/kg/injection, schedule: Q01DX001 (ip), vehicle: distilled water + Tween-80, evaluated on day 27",15 % of control
same,T/C,"T/C endpoint: median tumor weight change, dose: 62.5 mg/kg/injection, schedule: Q01DX001 (ip), vehicle: distilled water + Tween-80, evaluated on day 28",46 and 67 % of control
same,T/C,"T/C endpoint: median tumor weight change, dose: 62.5 mg/kg/injection, schedule: Q01DX001 (ip), vehicle: distilled water + Tween-80, evaluated on day 49",58 % of control
same,T/C,"T/C endpoint: median tumor weight change, dose: 125.0 mg/kg/injection, schedule: Q01DX001 (ip), vehicle: distilled water + Tween-80, evaluated on day 27",-44 % of control [9 of 10 alive on day 27]
same,T/C,"T/C endpoint: median tumor weight change, dose: 125.0 mg/kg/injection, schedule: Q01DX001 (ip), vehicle: distilled water + Tween-80, evaluated on day 28",-38 [8 of 10 alive on day 28] and 10 % of control [7 of 10 alive on day 28]
same,T/C,"T/C endpoint: median tumor weight change, dose: 125.0 mg/kg/injection, schedule: Q01DX001 (ip), vehicle: distilled water + Tween-80, evaluated on day 49",33 % of control
same,survivor count,"T/C endpoint: median tumor weight change, dose: 125.0 mg/kg/injection, schedule: Q01DX001 (ip), vehicle: distilled water + Tween-80",1 of 10 on day 24
same,survivor count,"T/C endpoint: median tumor weight change, dose: 250.0 mg/kg/injection, schedule: Q01DX001 (ip), vehicle: distilled water + Tween-80","0 of 10 on day 24, 0 of 10 on day 28, 1 of 10 on day 27, 2 of 10 on day 28, 2 of 10 on day 49"
same,survivor count,"T/C endpoint: median tumor weight change, dose: 500.0 mg/kg/injection, schedule: Q01DX001 (ip), vehicle: distilled water + Tween-80","0 of 10 on day 27, 0 of 10 on day 28, 0 of 10 on day 49, 1 of 10 on day 28"
same,survivor count,"T/C endpoint: median tumor weight change, dose: 1000.0 mg/kg/injection, schedule: Q01DX001 (ip), vehicle: distilled water + Tween-80",0 of 10 on day 28
same,survivor count,"T/C endpoint: median tumor weight change, dose: 2000.0 mg/kg/injection, schedule: Q01DX001 (ip), vehicle: distilled water + Tween-80",0 of 8 on day 28
Cn1ccc(=Nc2ccc(NC(=O)c3ccc(N=c4ccn(C)c5ccc([N+](=O)[O-])cc45)cc3[N+](=O)[O-])cc2)cc1,T/C,[3],144 % of control
same,T/C,"T/C endpoint: median tumor weight (est.), dose: 50.0 mg/kg/injection, schedule: Q07DX005 (ip), vehicle: saline with Tween-80, evaluated on day 30",127 % of control
same,survivor count,"T/C endpoint: median tumor weight (est.), dose: 400.0 mg/kg/injection, schedule: Q07DX005 (ip), vehicle: saline with Tween-80",6 of 10 on day 30
same,survivor count,"T/C endpoint: median tumor weight (est.), dose: 800.0 mg/kg/injection, schedule: Q07DX005 (ip), vehicle: saline with Tween-80",1 of 10 on day 30
CC1(C)OC1CS(=O)c1ccccc1 (stereo not drawn),survivor count,[1],1 of 10 on day 43 and 2 of 10 on day 27
same,survivor count,[2],0 of 10 on day 27 and 0 of 10 on day 43
CCC1OCC(C(Cl)CCl)O1 (stereo not drawn),T/C,"T/C endpoint: median tumor weight (est.), dose: 12.5 mg/kg/injection, schedule: Q07DX005 (ip), vehicle: Klucel (hydroxypropylcellulose) (HPC), evaluated on day 30",131 % of control
same,T/C,[4],134 % of control [9 of 10 alive]
COc1cccc2c1C(=N)c1c(O)c3c(c(O)c1C2=O)C[C@@](O)(C(C)=O)C[C@@H]3OC1CC(N)C(O)C(C)O1 (stereo partly drawn),survivor count,"T/C endpoint: median tumor weight (est.), dose: 6.67 mg/kg/injection, schedule: Q07DX005 (ip), vehicle: saline",2 of 10
N#CC(=C1C=CC(=NO)C=C1)c1ccc(Cl)cc1,T/C,"T/C endpoint: median tumor weight (est.), dose: 12.5 mg/kg/injection, schedule: Q07DX005 (ip), vehicle: saline with Tween-80, evaluated on day 30",145 % of control
O=NN(CCCl)C(=O)NCCO,survivor count,"T/C endpoint: median tumor weight change, dose: 31.3 mg/kg/injection, schedule: Q01DX001 (ip), vehicle: water",0 of 9 on day 33
same,survivor count,"T/C endpoint: median tumor weight change, dose: 32.0 mg/kg/injection, schedule: Q01DX001 (ip), vehicle: water",5 of 10 on day 29
same,survivor count,"T/C endpoint: median tumor weight change, dose: 62.5 mg/kg/injection, schedule: Q01DX001 (ip), vehicle: water",0 of 10 on day 33
same,survivor count,"T/C endpoint: median tumor weight change, dose: 125.0 mg/kg/injection, schedule: Q01DX001 (ip), vehicle: water",0 of 10 on day 33
same,survivor count,"T/C endpoint: median tumor weight change, dose: 250.0 mg/kg/injection, schedule: Q01DX001 (ip), vehicle: water",0 of 10 on day 33
